Data: patent US20060177440A1
Numbering of substitutions follows the chain as printed. Results are given in words; binding and its absence hold for the method and conditions named. For part of these data: A result given as binding can be weak or reduced; the word gives no strength.

B1: SH51 (Fab, V domains shown)
VH: EVQLLESGGGVVQPGRSLRLACAASGFSFRSYGMHWVRQAPGRGLEWVAFTWFDGSNKYYVDSVKGRFTISRDNSKNTLYLEMNSLRVDDTAVYYCAREASMLRGISRYYYAMDVWGPGTTVTVSS
VL: AELTQSPSFLSASVGDRVTITCRASQGIRSYLAWYQQKPGKAPKLLIYAASTLQSGVPSRFSGSGSGTEFTLTISSLQPEDFATYYCQQLNNYPPFTFGPGTKVDIKR
B2: SH39 (Fab, V domains shown)
VH: VQLLEQSGGGVVQPGRSLRLSCAASGFTFSSYGMHWVRQAPGKGLEWVAVIWFDGSNKEYADSVKGRFTISRDNSKNTLYLQMNSLRAEDTAVYYCAREEVVRGVILWSRKFDYWGQGTLVTVSS
VL: AELTQSPSSLSASVGDRVTITCRASQTIGRYLNWYQQRPGKAPKLLVYAVSSLQSGAPSRFSGSGSGTHFTLTITSLQPEDFATYFCQQSYSSPFTFGQGTKVEIKR
B3: SH54 (Fab, V domains shown)
VH: EVQLLESGGGVVQPGRSLRLSCAASGFTFSRNGMHWVRQAPGKGLEWVAFIWFDGSNKYYADSVKGRFTISRDNSKNTLYLQMNSLRADDTAVYYCAREEALFRGLTRWSYGMDVWGQGTTVSVSS
VL: AELTQSPSSMSASVGDRVTITCRASQSIGTYLNWYQQKPGKAPKLLIYAASSLQSGVPSRFSGSGSGTDFTLTISSLQPEDFATYYCQQSYSTPWTFGQGTKVEIKR
B4: SH36 (Fab, V domains shown)
VH: EVQLLESGGGVVQPGRSLRLSCEASKFTLYNYGMHWVRQAPGKGLEWVAFIWFDGSNKYYEDSVKGRFTVSRDNSKNTLYLQMNSLRAEDTAVYYCAREGSKKVALSRYYYYMDVWGQGTTVTVSS
VL: B3 VL with M10L, G29S, T30S, A42S, W95P, T96A, Q99P, E104D
B5: SH10 (Fab, V domains shown)
VH: B3 VH with E1V, V2Q, Q3L, L5E
VL: AELQDPVVSVALGQTVRITCQGDGLRSYYASWYQQKPGQAPKLVMYGRNNRPSGIPGRFSGSSSGQTAALTITGTQAEDEADYYCQSRATSGNPVVFGGGTKLTVL
B6: SH56 (Fab, V domains shown)
VH: EVQLLESGGGVVQPGRSLRLSCAASGFTFSSYGMHWVRQAPGKGLEWVAVVYYDGSNKHYSDSVKGRFTIFRDNSKNTLYLQMDSLRAEDTAVYYCARERNFRSGYSRYYYGMDVWGPGTTVTVSS
VL: AELTQSPSSLSASVGDRVTITCRASQSISRYLNWYQQKPGKAPKLLIYAASSLQSGVPSRFSGSGSGTDFALTISSLLPEDFATYYCQQGYSTPPYSFGQGTKLEIKR
B7: SH32 (Fab, V domains shown)
VH: B4 VH with G100L
VL: AELTQEPSLTVSPGGTVTLTCASSTGAVTSRYFPNWFQQKPGQAPRALIYGSNNKHSWTPARFSGSLLGGKAALTLSGVQPEDEAEYYCLLFYAGAWAFGGGTKLTVL
B8: SH55 (Fab, V domains shown)
VH: EVQLLESGGGVVQPGRSLRLSCVVSGFTFNNYGMHWVRQAPGKGLEWVAVIWFDGSNKYYADSVKGRFTISRDNSKNTLYLQMNSLRAEDTAVYYCARENQIKLWSRYLYYFDYWGQGTLVTVSS
VL: AELTQPPSASGTPGQRVTISCSGSSSNIGSKYVYWYQQLPGTAPKLLIYSNNQRPSGVPDRFSAFKSGTSASLAITGLQAEDEANYYCQSYDSGLSGWVFGGGTKLTVL
B9: SH53 (Fab, V domains shown)
VH: EVQLLESGGGGVQPGRSLRLSCAASGFTFNSYAMYWVRQPPGKGLEWVAAIWYDGSNKEYADFVKGRFTISRDNSKNTLSLQMNSLRDEDTAVYYCAREANLLRGWSRYYYGMDVWGQGTTVTVSS
VL: B5 VL
B10: SH24 (Fab, V domains shown)
VH: EVQLLESGGGVAQPGRSLRLSCVASGFSLRSYGMHWVRQAPGKGLEWVADIWFDGSNKDYADSVKGRFTISRDNSKNTLYLQMNSLRAEDTAVYYCARDWRVRAFSSGWLSAFDIWGQGTMVTVSS
VL: AELTQSPSSLSASVGDRVTITCRASQSISTYLNWYQQRPGKAPNLLIYAASTLQRGVPSRFTGSGSGTDFTLTISSLQPEDFATYYCQQSYTTLWTFGQGTKMEIRR

Each binder was assayed against partial Rh(D) antigen, D category VII (human) (assay: Fab/phage agglutination (anti-M13)).

binding	Binder
binds	B1
no binding	B2
binds	B3
no binding	B4
no binding	B5
no binding	B6
no binding	B7
binds	B8
no binding	B9
no binding	B10

These binders were tested against partial Rh(D) antigen, D category IVa (human) (assay: Fab/phage agglutination (anti-M13)).

binding	Binder
no binding	B1
no binding	B2
no binding	B3
no binding	B4
no binding	B5
no binding	B6
no binding	B7
no binding	B8
no binding	B9
no binding	B10

The binders below were run against partial Rh(D) antigen, D category IVb (human) (assay: Fab/phage agglutination (anti-M13)).

binding	Binder
no binding	B1
no binding	B2
no binding	B3
no binding	B4
no binding	B5
no binding	B6
no binding	B7
no binding	B8
no binding	B9
no binding	B10

What follows are binders tested against partial Rh(D) antigen, D category VI (human) (assay: Fab/phage agglutination (anti-M13)).

binding	Binder
no binding	B1
no binding	B2
no binding	B3
no binding	B4
no binding	B5
no binding	B6
no binding	B7
no binding	B8
no binding	B9
no binding	B10

These binders were tested against partial Rh(D) antigen, D category III (human) (assay: Fab/phage agglutination (anti-M13)).

binding	Binder
binds	B1
no binding	B2
binds	B3
no binding	B4
no binding	B5
binds	B6
no binding	B7
binds	B8
no binding	B9
no binding	B10

The binders below were run against partial Rh(D) antigen, D category V (human) (assay: Fab/phage agglutination (anti-M13)).

binding	Binder
binds	B1
no binding	B2
no binding	B3
no binding	B4
no binding	B5
no binding	B6
no binding	B7
binds	B8
no binding	B9
no binding	B10
